Measurements reported in PubChem BioAssay AID652243 (Drosophila RNAi Screening Center, 2013)

- Screen: 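Fly regulators of androgen-dependent reporter output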 (primary screen)
- Cells: Drosophila S2R+ cells
- Reagent: long dsRNA against Drosophila genes
- Time to read-out: 72 h (48 h, then 24 h hormone)
- Conditions: synthetic androgen R1881 at 10 nM for 24 h
- Detection: 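Firefly light from an androgen-responsive reporter and Renilla control light per well, raw and unnormalised, for each of two replicates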
- Reading the numbers: firefly reporter light: higher = more light from androgen-responsive reporter; Renilla control light: higher = more constitutive control signal (cell number, transfection)
- Active means: 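Hit when the log firefly-to-Renilla ratio dropped or increased by a fixed fold versus the mean of GFP or LacZ controls across duplicate plates; lowering cut given as 1.5 and as 3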
- Meaning of the calls: active = hit: reporter lowered or raised; inactive = no hit
In all, the deposit lists about 24,000 reagents; this is an unselected part of those with a known target gene and a result. Of all reagents, 246 (1%) got an active call. 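Plates not normalised; calls are printed but the firefly/Renilla ratio behind them is not deposited; fold cut for lowering reported inconsistently.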 Raw values vary from plate to plate and are shown uncorrected. Names joined by + are all predicted targets of the reagent. Reagent sequences are not shown. The record does not give: the amount of reagent.

| gene | dsRNA | firefly reporter light, replicate 1 | firefly reporter light, replicate 2 | Renilla control light, replicate 1 | Renilla control light, replicate 2 | activity call |
| --- | --- | --- | --- | --- | --- | --- |
| CG5342 | DRSC15776 | 98204 | 93324 | 1.27e6 | 1.10e6 | inactive |
| Lpt | DRSC04291 | 2.53e5 | 2.97e5 | 2.16e6 | 2.29e6 | inactive |
| Lpt | DRSC04515 | 9.14e5 | 2.89e5 | 1.76e6 | 7.36e5 | inactive |
| CG16935 | DRSC06638 | 68272 | 1.13e5 | 1.25e6 | 1.25e6 | inactive |
| bsd | DRSC05953 | 1.20e5 | 96917 | 5.47e5 | 4.46e5 | inactive |
| bsd | DRSC36783 | – | – | – | – | inactive |
| bsd | DRSC36784 | – | – | – | – | inactive |
| bero | DRSC03211 | 1.93e5 | 2.17e5 | 1.97e6 | 2.73e6 | inactive |
| bero | DRSC24416 | 9.46e5 | 6.09e5 | 1.01e6 | 1.34e6 | inactive |
| Apc2 | DRSC14115 | 37140 | 60256 | 3.53e5 | 3.46e5 | inactive |
| Setx | DRSC10859 | 3.13e5 | 2.63e5 | 3.72e6 | 2.61e6 | inactive |
| CG42855 | DRSC06161 | 94980 | 1.57e5 | 1.35e6 | 1.05e6 | inactive |
| sut3 | DRSC07702 | 3.43e5 | 3.05e5 | 2.00e6 | 2.07e6 | inactive |
| sut3 | DRSC24322 | 2.28e5 | 2.46e5 | 8.44e5 | 5.86e5 | inactive |
| CG14269 | DRSC17912 | 2.77e5 | 2.56e5 | 3.36e6 | 2.77e6 | inactive |
| Ercc1 | DRSC07424 | 9.15e5 | 7.75e5 | 1.46e6 | 1.50e6 | inactive |
| HSPC300 | DRSC22880 | 5.24e5 | 9.70e5 | 1.42e6 | 2.45e6 | inactive |
| CG8858 | DRSC07290 | 2.45e5 | 1.86e5 | 1.43e6 | 1.41e6 | inactive |
| tty | DRSC20588 | 1.46e5 | 1.68e5 | 7.56e5 | 8.92e5 | inactive |
| tty | DRSC26868 | 3.30e5 | 2.88e5 | 6.53e5 | 7.19e5 | inactive |
| CG9166 | DRSC07842 | 77792 | 1.11e5 | 8.65e5 | 1.15e6 | inactive |
| CG33303 | DRSC02848 | 1.83e5 | 1.91e5 | 8.83e5 | 1.54e6 | inactive |
| orb2 + CG43783 | DRSC10540 | 6.28e5 | 5.40e5 | 1.15e6 | 1.21e6 | inactive |
| orb2 + CG43783 | DRSC10541 | 1.70e5 | 1.81e5 | 2.10e6 | 1.59e6 | inactive |
| orb2 + CG43783 | DRSC10542 | 6.03e5 | 7.94e5 | 9.82e5 | 2.08e6 | inactive |
| orb2 + CG43783 | DRSC25697 | 7.54e5 | 8.33e5 | 7.43e5 | 8.34e5 | inactive |
| CG11151 | DRSC19387 | 4.63e5 | 5.51e5 | 3.95e6 | 3.81e6 | inactive |
| Sin3A | DRSC07552 | 4.27e5 | 4.29e5 | 1.02e6 | 9.80e5 | inactive |
| Sin3A | DRSC37642 | 2.25e5 | 2.43e5 | 1.13e6 | 1.18e6 | inactive |
| CG9717 | DRSC16543 | 1.15e5 | 1.67e5 | 1.97e6 | 2.43e6 | inactive |
| Uhg2 + snoRNA:Me18S-G1620 + snoRNA:U14:30Ea | DRSC01100 | 1.58e5 | 1.64e5 | 5.74e5 | 4.43e5 | inactive |
| UQCR-C1 | DRSC15508 | 79651 | 91337 | 9.14e5 | 9.44e5 | inactive |
| CG8032 | DRSC16365 | 1.36e5 | 94342 | 1.92e6 | 2.07e6 | inactive |
| CG8032 | DRSC29586 | 3.88e5 | 3.07e5 | 1.05e6 | 1.05e6 | inactive |
| CG4017 | DRSC02733 | 1.16e5 | 91018 | 7.36e5 | 7.35e5 | inactive |
| Prosalpha3T | DRSC15226 | 1.40e5 | 1.37e5 | 2.35e6 | 2.58e6 | inactive |
| CG12935 + Nop10 | DRSC07025 | 3.87e5 | 3.78e5 | 2.18e6 | 1.91e6 | inactive |
| swa | DRSC18842 | 1.20e5 | 1.12e5 | 7.88e5 | 5.76e5 | inactive |
| swa | DRSC25555 | 4.45e5 | 5.95e5 | 7.39e5 | 5.21e5 | inactive |
| DptB | DRSC06001 | 1.21e5 | 1.48e5 | 2.32e6 | 2.94e6 | inactive |
| Haspin | DRSC37736 | 1.09e6 | 9.81e5 | 2.09e6 | 1.43e6 | inactive |
| Mer | DRSC20259 | 73955 | 62117 | 5.91e5 | 5.74e5 | inactive |
| Bap170 | DRSC04964 | 6.67e5 | 6.36e5 | 1.23e6 | 1.48e6 | inactive |
| Bap170 | DRSC21826 | 5.34e5 | 5.58e5 | 2.36e6 | 3.52e6 | inactive |
| Bap170 | DRSC27559 | 4.29e5 | 4.26e5 | 6.54e5 | 6.67e5 | inactive |
| stas | DRSC20104 | 1.44e5 | 79837 | 1.08e6 | 8.32e5 | inactive |
| CG34039 | DRSC37914 | 9.96e5 | 9.39e5 | 2.36e6 | 1.96e6 | inactive |
| Spn28Db | DRSC22033 | 9.16e5 | 8.16e5 | 1.42e6 | 1.42e6 | inactive |
| CG11030 | DRSC02120 | 45515 | 43777 | 6.18e5 | 5.34e5 | inactive |
| CG11030 | DRSC23703 | 5.63e5 | 8.13e5 | 7.76e5 | 8.21e5 | inactive |
| Ccn | DRSC09504 | 2.69e5 | 1.86e5 | 8.84e5 | 7.35e5 | inactive |
| Ccn | DRSC09506 | 1.87e5 | 2.43e5 | 7.21e5 | 5.54e5 | inactive |
| Ccn | DRSC10062 | 70874 | 1.17e5 | 7.94e5 | 8.63e5 | inactive |
| Ccn | DRSC10063 | 75423 | 78775 | 2.36e6 | 1.50e6 | inactive |
| CG4960 | DRSC15684 | 2.03e5 | 1.68e5 | 1.99e6 | 1.87e6 | inactive |
| CG4960 | DRSC27774 | 5.87e5 | 5.73e5 | 5.59e5 | 6.43e5 | inactive |
| kni | DRSC23093 | 4.62e5 | 6.04e5 | 1.20e6 | 1.41e6 | inactive |
| kni | DRSC29974 | 8.43e5 | 7.86e5 | 1.43e6 | 1.51e6 | inactive |
| CG13050 | DRSC09931 | 2.09e5 | 1.80e5 | 2.23e6 | 2.39e6 | inactive |
| Jon99Fi | DRSC26496 | 2.96e5 | 3.17e5 | 5.86e5 | 6.51e5 | inactive |
| CG11007 | DRSC06023 | 1.25e6 | 8.82e5 | 1.25e6 | 7.91e5 | inactive |
| CG3927 + nsr | DRSC27267 | 4.12e5 | 3.35e5 | 5.44e5 | 4.61e5 | inactive |
| aust | DRSC02558 | 1.37e5 | 1.64e5 | 1.43e6 | 1.35e6 | inactive |
| aust | DRSC26019 | 4.83e5 | 3.41e5 | 8.31e5 | 6.48e5 | inactive |
| CG11178 | DRSC19396 | 68890 | 66610 | 7.69e5 | 6.69e5 | inactive |
| Snmp1 | DRSC16168 | 4.89e5 | 4.71e5 | 2.58e6 | 2.40e6 | inactive |
| CG34409 | DRSC14577 | 1.79e5 | 2.13e5 | 2.81e6 | 3.14e6 | inactive |
| CG34409 | DRSC21667 | 9.79e5 | 8.00e5 | 2.92e6 | 2.05e6 | inactive |
| CG10866 | DRSC08171 | 1.13e5 | 1.57e5 | 1.01e6 | 1.95e6 | inactive |
| CG10866 | DRSC29672 | 2.35e5 | 4.25e5 | 6.27e5 | 6.27e5 | inactive |
| CG15824 | DRSC00473 | 2.31e5 | 98003 | 1.47e6 | 9.90e5 | inactive |
| CG15824 | DRSC27412 | 2.61e5 | 2.61e5 | 7.49e5 | 7.85e5 | inactive |
| Tina-1 | DRSC04317 | 1.30e6 | 1.24e6 | 1.75e6 | 2.10e6 | inactive |
| CG9213 | DRSC20170 | 1.23e5 | 1.18e5 | 5.96e5 | 6.53e5 | inactive |
| CG9213 | DRSC24500 | 8.41e5 | 7.98e5 | 9.69e5 | 1.08e6 | inactive |

13 of these entries in another layout.
CG16935 [DRSC06638]: firefly reporter light, replicate 1 = 68272; firefly reporter light, replicate 2 = 1.13e5; Renilla control light, replicate 1 = 1.25e6; Renilla control light, replicate 2 = 1.25e6; activity call = inactive
bsd [DRSC05953]: firefly reporter light, replicate 1 = 1.20e5; firefly reporter light, replicate 2 = 96917; Renilla control light, replicate 1 = 5.47e5; Renilla control light, replicate 2 = 4.46e5; activity call = inactive
bsd [DRSC36783]: activity call = inactive
bsd [DRSC36784]: activity call = inactive
bero [DRSC03211]: firefly reporter light, replicate 1 = 1.93e5; firefly reporter light, replicate 2 = 2.17e5; Renilla control light, replicate 1 = 1.97e6; Renilla control light, replicate 2 = 2.73e6; activity call = inactive
bero [DRSC24416]: firefly reporter light, replicate 1 = 9.46e5; firefly reporter light, replicate 2 = 6.09e5; Renilla control light, replicate 1 = 1.01e6; Renilla control light, replicate 2 = 1.34e6; activity call = inactive
Apc2 [DRSC14115]: firefly reporter light, replicate 1 = 37140; firefly reporter light, replicate 2 = 60256; Renilla control light, replicate 1 = 3.53e5; Renilla control light, replicate 2 = 3.46e5; activity call = inactive
Setx [DRSC10859]: firefly reporter light, replicate 1 = 3.13e5; firefly reporter light, replicate 2 = 2.63e5; Renilla control light, replicate 1 = 3.72e6; Renilla control light, replicate 2 = 2.61e6; activity call = inactive
CG42855 [DRSC06161]: firefly reporter light, replicate 1 = 94980; firefly reporter light, replicate 2 = 1.57e5; Renilla control light, replicate 1 = 1.35e6; Renilla control light, replicate 2 = 1.05e6; activity call = inactive
sut3 [DRSC07702]: firefly reporter light, replicate 1 = 3.43e5; firefly reporter light, replicate 2 = 3.05e5; Renilla control light, replicate 1 = 2.00e6; Renilla control light, replicate 2 = 2.07e6; activity call = inactive
sut3 [DRSC24322]: firefly reporter light, replicate 1 = 2.28e5; firefly reporter light, replicate 2 = 2.46e5; Renilla control light, replicate 1 = 8.44e5; Renilla control light, replicate 2 = 5.86e5; activity call = inactive
CG14269 [DRSC17912]: firefly reporter light, replicate 1 = 2.77e5; firefly reporter light, replicate 2 = 2.56e5; Renilla control light, replicate 1 = 3.36e6; Renilla control light, replicate 2 = 2.77e6; activity call = inactive
Ercc1 [DRSC07424]: firefly reporter light, replicate 1 = 9.15e5; firefly reporter light, replicate 2 = 7.75e5; Renilla control light, replicate 1 = 1.46e6; Renilla control light, replicate 2 = 1.50e6; activity call = inactive
